The comparison behind a weaker result is the experiment's own reference, which may not be listed here. Tags and fusion partners may be left off the protein sequences shown.
Target: T1, TRIP4 1-230 (UniProt Q15650)
T1 sequence (looked up): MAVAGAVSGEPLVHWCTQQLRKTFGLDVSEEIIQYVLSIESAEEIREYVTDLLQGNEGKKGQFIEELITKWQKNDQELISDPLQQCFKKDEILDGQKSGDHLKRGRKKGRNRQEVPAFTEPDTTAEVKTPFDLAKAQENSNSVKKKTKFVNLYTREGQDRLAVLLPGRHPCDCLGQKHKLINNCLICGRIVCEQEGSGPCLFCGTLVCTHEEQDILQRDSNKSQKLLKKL
Assay: MST
Settings: very low affinity, EC50 n.d., dilution series up to 40 uM; MST: 20 mM HEPES-NaOH pH 7.5, 300 mM NaCl, 5% glycerol, 1 mM DTT, room temperature, 50 nM final Cy5-T48; recombinant protein; residues 1-230; protein details: N-terminal His6, TEV-cleaved; label: 5'-Cy5; single-stranded DNA

TTTTTTTTTTTTTTTTTTTTTTTTTTTTTTTTTTTTTTTTTTTTTTTT [T48 (Cy5)]
binding result: binds more weakly

— paper PMC10076317, “Extended DNA threading through a dual-engine motor module of the activating signal co-integrator 1 complex” (Nature Communications, 2023)
